The source of these data is publication PMC12094035.

No constants are given. Whether binding was seen depends on the method and setting. For some assays here: In cells and extracts the contact can be indirect. Some results given as binding are weak or reduced against the parent protein; the word gives no strength.

Assay [1] deals with GCP6, in the reconstituted human γ-TuRC (human) (UniProt B2RWN4). Description: cryo-EM structure; NEDD1-containing rec-γ-TuRC; free particles in micrographs of Aher et al. (2024), processed anew; consensus map 4.7 Å; model from AlphaFold 3 predictions fitted to the map and refined, side chains trimmed to β-carbons; both purified.
Assay [2] concerns the target GCP2, in the reconstituted human γ-TuRC (human) (UniProt Q9BSJ2). The assay is described as above.
Assay [3] deals with GCP3, in the reconstituted human γ-TuRC (human) (UniProt Q96CW5). Described as above.
In assay [4] the target is GCP5-SBP-Myc quadruple mutant R213A/R228G/L256E/V258E (human) (UniProt Q96RT8). Description: pull-down; SBP pull-down of GCP-SBP-Myc constructs on Streptavidin Sepharose from HEK293T lysate co-transfected with V5-NEDD1, 1 h at 4°C; V5 western blot; 50 mM HEPES pH 7.5, 150 mM NaCl, 1% NP-40, 0.5% sodium deoxycholate, 2 mM DTT.
The target of a further assay is GCP5-SBP-Myc WT (human) (UniProt Q96RT8). The assay is described as above.
A further assay has as its target Myc-SBP-NEDD1 WT (human) (UniProt Q8NHV4). Put plainly: pull-down; SBP pull-down of Myc-SBP-NEDD1 constructs on Streptavidin Sepharose from transfected HEK293T lysate, 1 h at 4°C; endogenous γ-tubulin by western blot; 50 mM Tris-HCl pH 7.5, 150 mM NaCl, 0.1% Triton X-100, 10% glycerol, 2 mM DTT. On the technique in general: In western blotting, separated proteins are transferred to a membrane and probed.

Assay [5] has as its target Myc-SBP-NEDD1 F603A/F622A (human) (UniProt Q8NHV4). The description is as above.
Assay [6] concerns the target Myc-SBP-NEDD1 1–634 (fishtail deletion lacking residues 635–660) (human) (UniProt Q8NHV4). The assay is described as above.
The target in assay [7] is Myc-SBP-NEDD1 E598A/D602A/E605A (human) (UniProt Q8NHV4). The description is as above.

With “GCP5, in the reconstituted human γ-TuRC (from UniProt Q96RT8 1-1024)”, in [1], the binding entry is listed as “binds”.

Consider “GCP6, in the reconstituted human γ-TuRC (from UniProt B2RWN4 1-1811)”, for which the binding result in assay [2] and in assay [3] was “binds” throughout.

As to “MZT1, in the reconstituted human γ-TuRC (from UniProt Q08AG7 1-82)”, the binding result in assay [1] was “binds”.

For the substance “N-terminally V5-tagged WT NEDD1 (from UniProt Q8NHV4-1 1-660)”, the binding entry (in [4]; in the assay with GCP5-SBP-Myc WT (human)) was “binds” in each case.

“endogenous γ-tubulin of HEK293T cells (from UniProt P23258 1-451)”: the binding result (with Myc-SBP-NEDD1 WT (human); in assay [5]; in assay [6]; in assay [7]) was “binds” throughout.

With “neural precursor cell expressed, developmentally downregulated 1 (NEDD1), full length, in the reconstituted human γ-TuRC (from UniProt Q8NHV4 1-660)”, in assay [1], the binding entry was “binds”.
